Reference: US4665183A, “Process for preparing 6,7,8,9-tetrahydro-10-methylpyrido[1,2-a]indol-9-amines and derivatives thereof useful for the treatment of cognitive impairments” (American Home Products Corp., priority 1986, dated 1987)

Assay: Passive avoidance test: scopolamine-induced memory impairment in rats
Assay type: in vivo, male Sprague-Dawley
Conditions: scopolamine 2.0 mg/kg s.c. 15 or 30 minutes prior to the training session

Compound: CN1[C@@H]2C[C@@H](OC(=O)[C@H](CO)c3ccccc3)C[C@H]1[C@@H]1O[C@@H]12 [scopolamine]
- time to enter the dark compartment during the retention test: ≤ 50 s
